# Experimental data: PubChem BioAssay (Tox21)
# Amino acid sequences for entries named in this document (tags omitted). A change or cut given only in a name is not applied to a line headed by its entry.
# UniProt P30968: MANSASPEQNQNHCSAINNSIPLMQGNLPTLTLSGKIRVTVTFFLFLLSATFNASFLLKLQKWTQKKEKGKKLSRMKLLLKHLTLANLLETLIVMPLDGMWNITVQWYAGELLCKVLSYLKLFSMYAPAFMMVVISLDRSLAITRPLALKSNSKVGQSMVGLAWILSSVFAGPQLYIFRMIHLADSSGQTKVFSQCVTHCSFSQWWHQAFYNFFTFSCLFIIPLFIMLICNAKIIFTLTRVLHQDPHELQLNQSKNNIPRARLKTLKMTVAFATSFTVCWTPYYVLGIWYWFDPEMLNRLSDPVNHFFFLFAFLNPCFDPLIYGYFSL
# UniProt P28223, whole entry, looked up: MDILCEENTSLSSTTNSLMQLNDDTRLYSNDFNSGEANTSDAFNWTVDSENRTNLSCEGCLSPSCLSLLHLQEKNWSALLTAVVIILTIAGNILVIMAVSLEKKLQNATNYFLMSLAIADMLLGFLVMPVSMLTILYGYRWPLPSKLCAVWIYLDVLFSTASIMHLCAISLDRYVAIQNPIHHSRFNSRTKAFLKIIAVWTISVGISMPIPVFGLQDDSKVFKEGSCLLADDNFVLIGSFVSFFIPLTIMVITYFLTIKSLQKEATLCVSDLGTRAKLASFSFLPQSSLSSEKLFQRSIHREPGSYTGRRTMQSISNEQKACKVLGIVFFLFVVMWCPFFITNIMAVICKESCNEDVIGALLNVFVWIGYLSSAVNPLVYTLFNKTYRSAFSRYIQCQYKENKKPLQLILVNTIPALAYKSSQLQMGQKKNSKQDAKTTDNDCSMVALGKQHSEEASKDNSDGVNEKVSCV
# UniProt P11229: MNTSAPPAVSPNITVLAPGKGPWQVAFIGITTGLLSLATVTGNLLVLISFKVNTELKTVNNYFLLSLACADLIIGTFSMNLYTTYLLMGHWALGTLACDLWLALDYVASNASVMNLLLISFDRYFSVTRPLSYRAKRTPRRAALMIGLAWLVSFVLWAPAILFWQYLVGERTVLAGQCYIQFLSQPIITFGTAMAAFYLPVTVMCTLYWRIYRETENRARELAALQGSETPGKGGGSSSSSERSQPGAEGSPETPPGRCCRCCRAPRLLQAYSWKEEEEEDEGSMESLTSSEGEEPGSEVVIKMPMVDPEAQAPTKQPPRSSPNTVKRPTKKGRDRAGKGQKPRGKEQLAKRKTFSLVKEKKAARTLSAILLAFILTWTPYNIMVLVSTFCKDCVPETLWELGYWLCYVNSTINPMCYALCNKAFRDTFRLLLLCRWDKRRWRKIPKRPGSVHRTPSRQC
# UniProt P14416, whole entry, looked up: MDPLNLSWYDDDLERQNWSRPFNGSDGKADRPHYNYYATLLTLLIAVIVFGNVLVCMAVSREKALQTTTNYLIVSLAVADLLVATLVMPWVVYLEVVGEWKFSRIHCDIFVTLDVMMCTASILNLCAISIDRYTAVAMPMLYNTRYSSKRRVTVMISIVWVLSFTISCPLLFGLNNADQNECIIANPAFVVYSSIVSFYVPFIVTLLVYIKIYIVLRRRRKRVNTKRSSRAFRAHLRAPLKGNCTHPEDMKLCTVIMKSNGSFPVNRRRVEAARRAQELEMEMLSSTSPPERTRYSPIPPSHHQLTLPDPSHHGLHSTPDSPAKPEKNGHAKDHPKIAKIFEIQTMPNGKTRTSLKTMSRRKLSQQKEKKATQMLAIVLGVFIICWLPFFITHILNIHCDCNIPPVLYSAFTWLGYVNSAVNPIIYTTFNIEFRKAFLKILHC
# UniProt Q969F8, whole entry, looked up: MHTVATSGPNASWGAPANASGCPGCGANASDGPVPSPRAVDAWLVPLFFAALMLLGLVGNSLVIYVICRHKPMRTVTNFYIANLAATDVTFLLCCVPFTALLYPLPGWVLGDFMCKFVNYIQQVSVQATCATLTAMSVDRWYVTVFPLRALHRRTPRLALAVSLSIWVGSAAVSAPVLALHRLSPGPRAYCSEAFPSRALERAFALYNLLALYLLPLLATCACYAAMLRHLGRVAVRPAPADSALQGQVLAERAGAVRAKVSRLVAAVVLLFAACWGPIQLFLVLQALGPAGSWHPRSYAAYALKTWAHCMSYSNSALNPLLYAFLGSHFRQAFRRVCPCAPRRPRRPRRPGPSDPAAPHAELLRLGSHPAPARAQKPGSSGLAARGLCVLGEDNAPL
# “And” between values parts separate entries of the source, which are not always exact repeats. Equal values may be shown once. Inconclusive means that the source gave no clear call. Such entries were picked first, then a sample of the others. For part of these data: Potencies beside an inconclusive call are fits to weak or partial responses and may not hold up. Some structures have more than one record in an assay (separate samples or runs), and their calls can disagree. The source made the active and inactive calls. Unless noted, calls follow the shape of the full dose curve.
# How the values were obtained:
# [1] = Nuclear factor erythroid 2-related factor 2/antioxidant responsive element (Nrf2/ARE) small molecule agonists: luciferase reporter gene qHTS assay in human keratinocytes (AID 1919969); conditions: KeratinoSens HaCaT ARE-luciferase, luminescence, 24 h; activity, positive = activation: at 92.4 µM (top of the series); also: nearly all actives have a fitted effect of over 35% in size; also: potency is read from the fitted curve at half-maximal effect; as to activity, positive = activation: % is scaled to controls: 0 for no effect and ±100 for the full control effect
# [2] = target: Gonadotropin-releasing hormone receptor (Homo sapiens) (UniProt P30968); assay: Human gonadotropin-releasing hormone receptor (GnRHR) small molecule agonists, calcium flux assay in GnRHR-HEK293 cells (AID 1920063); conditions: calcium flux fluorescence, agonist mode; activity change: at 57.6 µM (top of the series), hits give high values unless noted; also: nearly all actives have a fitted effect of over 35% in size; also: potency is read from the fitted curve at half-maximal effect
# Outline: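 GnRHR-HEK293, 1500 cells/well, 18 h 37 C/5% CO2; Ca dye 1 h 37 C; cpd pinned (DMSO), agonist mode; kinetic FL 480/540, 3 min, 1 s reads; 15 conc, n=3.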
# [3] = target: 5-hydroxytryptamine receptor 2A (Homo sapiens) (UniProt P28223); assay: 5-hydroxytryptamine receptor 2A (HTR2A) small molecule antagonists, cell-based qHTS assay (AID 1963586); also: nearly all actives have a fitted effect of over 45% in size; also: potency is read from the fitted curve at half-maximal effect
# Outline: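 Antagonist-mode intracellular calcium assay: DOI (4 nM) added after 5 min compound pre-incubation at room temperature to dye-loaded HTR2A-CHO cells. Fluorescence followed for 3 min, sampled every second.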
# [4] = cAMP Responsive Elements (CRE) small molecule antagonists, cell-based qHTS assay (AID 1963591; active = well fitted inhibition curve with a large enough effect in the signal ratio in the repeat runs, not every such curve was filed as active; inconclusive = weak or mixed curves, or effect the other way; the % refers to the signal ratio; also: potency is read from the fitted curve at half-maximal effect; as to activity change, negative = inhibition: % is scaled to controls: 0 for no effect and ±100 for the full control effect); conditions: CRE-bla HEK293T, beta-lactamase FRET ratio; activity change, negative = inhibition: at 92.4 µM (top of the series) unless noted
# Outline: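 Beta-lactamase reporter read by FRET substrate (LiveBLAzer B/G) after 2 h at room temperature. CRE-bla HEK293T cells had received compound plus 0.25 uM (final) NKH477 for 3 h at 37 °C.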
# [5] = p53 small molecule agonists, cell-based qHTS assay (AID 1963582; active = well fitted activation curve with a large enough effect in the signal ratio in the repeat runs, not every such curve was filed as active; inconclusive = weak or mixed curves; the % refers to the signal ratio; also: potency is read from the fitted curve at half-maximal effect; as to activation: % is scaled to controls: 0 for no effect and ±100 for the full control effect); conditions: HCT-116 p53RE-bla reporter, beta-lactamase FRET ratio, 16 h; activation: at 66 µM (top of the series) unless noted
# Outline: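 Reporter line: p53RE-bla. Pre-incubation 5 h, 37 C, 5% CO2; compound (DMSO, pin tool) 16 h, 37 C; B/G FRET substrate 2 h RT; fluorescence intensity read.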
# [6] = target: Muscarinic acetylcholine receptor M1 (Homo sapiens) (UniProt P11229); assay: Cholinergic receptor muscarinic 1 (CHRM1) small molecule agonists, cell-based qHTS assay (AID 1963589); also: potency is read from the fitted curve at half-maximal effect; nearly all actives have a fitted effect of over 35% in size
# Outline: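 Human M1 in stable CHO line; 18 h plating, 1 h dye load 37 C; cpd added (agonist mode); Ca2+ fluorescence kinetic read, 1 s intervals; 15 conc, 3 runs.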
# [7] = cAMP Responsive Elements (CRE) small molecule agonists, cell-based qHTS assay (AID 1963590); conditions: CRE-bla HEK293T, beta-lactamase FRET ratio, 3 h; activation: at 92.4 µM (top of the series) unless noted; also: potency is read from the fitted curve at half-maximal effect
# Outline: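 HEK 293T CRE-bla, 2,000 cells/well, 18 h preincubation 37 C/5% CO2; cpds (DMSO) pinned, 3 h; LiveBLAzer B/G FRET substrate, 2 h RT.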
# [8] = target: Beta-2 adrenergic receptor (Homo sapiens) (UniProt P07550); assay: Adrenergic beta2 receptor (ADRB2) small molecule agonists, cell-based qHTS assay (AID 1963593); conditions: CHO-ADRB2 cells, cAMP HTRF, 30 min; also: potency is read from the fitted curve at half-maximal effect
# Outline: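 CHO cells stably over-expressing ADRB2 were plated overnight at 37C, then dosed with compounds plus a stimulation mix containing 100uM IBMX and 25uM Ro-20-1724 for 0.5hr at room temperature. cAMP was measured by HTRF competition, 1hr.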
# [9] = p53 small molecule agonists, cell-based qHTS assay with human liver microsomes (AID 1963577); conditions: HCT-116 p53RE-bla with human liver microsomes, ratio, 16 h; activation: at 66 µM (top of the series) unless noted; also: potency is read from the fitted curve at half-maximal effect
# Outline: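 p53RE-bla cells; 5 h settle, 37 C/5% CO2; cpd + HLM 0.5 mg/mL + NADPH 0.5 mg/mL (final); 16 h 37 C; LiveBLAzer 2 h RT dark; fluorescence readout.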
# [10] = p53 small molecule agonists, cell-based qHTS assay with rat liver microsomes (AID 1963578); conditions: HCT-116 p53RE-bla, beta-lactamase ratio, 16 h; activation: at 66 µM (top of the series) unless noted; also: potency is read from the fitted curve at half-maximal effect
# Outline: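 Rat liver microsome activation: microsomes 0.5 mg/mL, NADPH 0.5 mg/mL final; p53RE-bla cells, 16 h 37 C; LiveBLAzer readout, 2 h RT dark.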
# [11] = p53 small molecule agonists, cell-based qHTS assay with human liver microsomes: qHTS cell viability counter screen (AID 1963579); also: potency is read from the fitted curve at half-maximal effect; nearly all actives have a fitted effect of over 45% in size
# Outline: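 Luminescent CellTiter-Glo read-out, 30 min at room temperature, gauged cytotoxicity in p53RE-bla cells exposed 16 h at 37 C to DMSO-dissolved compounds with metabolic activation by human liver microsomes and NADPH, each 0.5 mg/mL final.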
# [12] = p53 small molecule agonists, cell-based qHTS assay: qHTS cell viability counter screen (AID 1963581); also: potency is read from the fitted curve at half-maximal effect; nearly all actives have a fitted effect of over 45% in size
# Outline: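 HCT-116 p53RE-bla cells, 4,000/well, plated 5 h before compound pin transfer; 16 h at 37 C; bla substrate 2 h RT; then CellTiter-Glo, 30 min RT, luminescence.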
# [13] = target: Beta-2 adrenergic receptor (Homo sapiens) (UniProt P07550); assay: Adrenergic beta2 receptor (ADRB2) small molecule antagonists, cell-based qHTS assay (AID 1963592); conditions: CHO-ADRB2 cells, isoproterenol-stimulated cAMP HTRF ratio, 0.5 h; activity change, negative = inhibition: at 92.4 µM (top of the series) unless noted; also: nearly all actives have a fitted effect of over 50% in size; also: potency is read from the fitted curve at half-maximal effect
# Outline: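 Cells (CHO, stable ADRB2 overexpression) incubated 18-20hr at 37C; compounds added from DMSO; agonist mix (1nM isoproterenol, 100uM IBMX, 25uM Ro-20-1724) added; 0.5hr RT; d2-cAMP and anti-cAMP-cryptate added; 1hr RT; 665/615 nm read.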
# [14] = target: D(2) dopamine receptor (Homo sapiens) (UniProt P14416); assay: Dopamine D2 receptor (DRD2) small molecule agonists, cell-based qHTS assay (AID 1963594); conditions: HEK293-DRD2 cAMP HTRF, agonist mode, 30 min; activation: at 92.4 µM (top of the series) unless noted; also: potency is read from the fitted curve at half-maximal effect; nearly all actives have a fitted effect of over 35% in size
# Outline: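 HEK293 cells stably expressing DRD2 were cultured 24 h at 37 C, then given Ro20-1724 (0.1 mM final) and compounds for 10 min at room temperature. NKH477 (200nM) was then added for 30 min. cAMP was read by HTRF.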
# [15] = target: D(2) dopamine receptor (Homo sapiens) (UniProt P14416); assay: Dopamine D2 receptor (DRD2) small molecule antagonists, cell-based qHTS assay (AID 1963595; active = well fitted inhibition curve with a large enough effect in the signal ratio in the repeat runs, with a control signal flat; inconclusive = weak or mixed curves, or effect the other way; the % refers to the signal ratio; also: % is scaled to controls: 0 for no effect and ±100 for the full control effect); conditions: HEK293-DRD2 cAMP HTRF antagonist mode; activity change, negative = inhibition: at 92.4 µM (top of the series) unless noted
# Outline: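 HTRF cAMP read-out at 665 and 620 nm emission (340 nm excitation). Antagonist mode: compounds were tested against 12 nM quinpirole in DRD2-HEK293 cells, with 200 nM NKH477 raising cAMP and 0.1 mM Ro20-1724 blocking its breakdown.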
# [16] = p53 small molecule agonists, cell-based qHTS assay with rat liver microsomes: qHTS cell viability counter screen (AID 1963580); also: potency is read from the fitted curve at half-maximal effect; nearly all actives have a fitted effect of over 45% in size
# Outline: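 In HCT-116 cells carrying a p53 response element-bla reporter, compounds were metabolically activated in situ by rat liver microsomes with NADPH over 16 h. Cell ATP content then served as the cytotoxicity measure.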
# [17] = target: 5-hydroxytryptamine receptor 2A (Homo sapiens) (UniProt P28223); assay: 5-hydroxytryptamine receptor 2A (HTR2A) small molecule agonists, cell-based qHTS assay (AID 1963587); also: potency is read from the fitted curve at half-maximal effect; nearly all actives have a fitted effect of over 30% in size
# Outline: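 HTR2A-CHO cells, plated 18 h at 37 C/5% CO2, dye-loaded 1 h at 37 C; compounds in DMSO added by pin tool (agonist mode). Intracellular calcium flux read as kinetic fluorescence on FDSS over 2 min at 1 s intervals.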
# [18] = target: Muscarinic acetylcholine receptor M1 (Homo sapiens) (UniProt P11229); assay: Cholinergic receptor muscarinic 1 (CHRM1) small molecule antagonists, cell-based qHTS assay (AID 1963588); also: potency is read from the fitted curve at half-maximal effect; nearly all actives have a fitted effect of over 40% in size
# Outline: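 CHRM1-CHO calcium-flux assay, antagonist mode. Cells were seeded 18 h, dye-loaded 1 h at 37 C and given compound for 5 min at RT, then acetylcholine was added at 50nM. FDSS fluorescence was read 3 min; 15 concentrations, three runs.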
# [19] = target: KiSS-1 receptor (Homo sapiens) (UniProt Q969F8); assay: Human kisspeptin (KISS1R) small molecule agonists, calcium flux assay in KISS1R-HEK293 cells (AID 1920064; active = well fitted activation curve with a large enough effect in the repeat runs; inconclusive = weak or mixed curves; also: potency is read from the fitted curve at half-maximal effect)
# Outline: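 Stable human KISS1R HEK293 line; 18 h plating, 37 C/5% CO2; calcium dye 1 h 37 C; compound pin transfer; kinetic fluorescence Ex/Em 480/540, 3 min.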
# [20] = activation: at 92.4 µM (top of the series) unless noted
smiles,measurement,setting,value
COC(=O)[C@]1(C)CCC[C@@]2(C)[C@H]1CC=C1C=C(C(C)C)CC[C@@H]12,Potency,[1],"inconclusive: 27.3 µM [activator, single point]"
same,Potency,[2],"inconclusive: 43.6 µM [activator, single point]"
same,Potency,[3],inactive
same,"activity change, negative = inhibition",[4],inconclusive: 4.35%
C[C@H](CCC(=O)O)[C@H]1CC[C@H]2[C@@H]3[C@H](O)C[C@@H]4C[C@H](O)CC[C@]4(C)[C@H]3CC[C@]12C,Potency,[1],inconclusive: 61.3 µM [activator]
same,Potency,[2],"inconclusive: 43.8 µM [activator, single point]"
same,Potency,[5],inactive
same,Potency,[3],"inconclusive: 42.2 µM [inhibitor, single point]"
same,Potency,[6],"inconclusive: 55.1 µM [rising, single point]"
same,Potency,[7],"inconclusive: 61.3 µM [rising, partial curve]"
same,Potency,[4],inconclusive: 68.8 µM [single point]
same,Potency,[8]; [20],"inconclusive: 0.244 µM [inhibitor, single point]"
CC(=O)OCC(=O)[C@@]1(O)CC[C@H]2[C@@H]3CCC4=CC(=O)CC[C@]4(C)[C@H]3C(=O)C[C@@]21C,Potency,[1],inactive
same,Potency,[2],inactive
same,activation,[8]; [20],inconclusive: 1.4% [at 42.5 µM]
Cc1ccc(N)cc1O,Potency,[1],active: 24.3 µM
same,Potency,[9],"inconclusive: 36.3 µM [fluorescent, partial curve]"
same,Potency,[10],inconclusive: 48.5 µM [fluorescent]
same,Potency,[11],active: 40.8 µM
same,Potency,[12],"inconclusive: 4.58 µM [cytotoxic, single point]"
same,Potency,[5],inconclusive: 19.3 µM
same,Potency,[7],inconclusive: 43.3 µM [fluorescent]
same,Potency,[4],inconclusive: 56.1 µM [fluorescent]
same,Potency,[13],"inconclusive: 68.6 µM [falling, single point]"
same,Potency,[8]; [20],"inconclusive: 34.4 µM [cytotoxic, partial curve, poor fit]"
same,Potency,[14],inconclusive: 57.7 µM
same,"activity change, negative = inhibition",[15],inconclusive: 27.4%
COC(=O)c1ccc(C(=O)OC)cc1,Potency,[1],"inconclusive: 1.24 µM [activator, single point]"
same,Potency,[2],"inconclusive: 44.2 µM [activator, single point]"
same,Potency,[16],active: 18.5 µM
same,Potency,[3],inactive
same,Potency,[17],"inconclusive: 62.5 µM [activator, single point]"
same,Potency,[18],"inconclusive: 0.0135 µM [inhibitor, full curve, poor fit]"
same,Potency,[6],"inconclusive: 62.5 µM [rising, single point]"
same,Potency,[4],inconclusive: 31 µM [partial curve]
same,activation,[8]; [20],inconclusive: 44.7% and inconclusive: 11.3%
CC(=O)O[C@@H]1C(=O)O[C@@H]2[C@H]1OC(=O)[C@@H]2OC(C)=O,Potency,[1],active: 29.8 µM
same,Potency,[9],inactive
CCCC(=O)OCC(COC(=O)CCC)OC(=O)CCC,Potency,[1],inactive
same,Potency,[2],inactive
same,Potency,[13],inactive
CC(C)NC[C@@H](O)COc1ccc(CC(N)=O)cc1,Potency,[1],inactive
same,Potency,[2],inactive
same,Potency,[12],"inconclusive: 25.1 µM [rising, single point]"
CC(C)(c1ccccc1)c1ccc(Nc2ccc(C(C)(C)c3ccccc3)cc2)cc1,Potency,[1],"inconclusive: 68.6 µM [activator, single point]"
same,Potency,[19],"inconclusive: 4.89 µM [activator, full curve, poor fit]"
same,Potency,[5],"inconclusive: 9.12 µM [rising, full curve, poor fit]"
same,Potency,[18],"inconclusive: 0.0149 µM [inhibitor, full curve, poor fit]"
same,Potency,[4],"inconclusive: 12.8 µM [inhibitor, single point]"
same,activation,[8]; [20],inconclusive: 2.61%
same,activation,[8]; at 92.4 µM (top of the series),inactive: 12.4%
CC1(C)C(=O)N(Br)C(=O)N1Br,Potency,[1],"inconclusive: 68.6 µM [activator, partial curve, poor fit]"
same,Potency,[9],"inconclusive: 45.8 µM [fluorescent, single point]"
CC(C)(C)OCC1CO1 (stereo not drawn),Potency,[1],inactive
same,Potency,[19],inactive
same,Potency,[8]; [20],inactive
CCCCc1cc2ccccc2c(OCCN(C)C)n1,Potency,[1],"inconclusive: 33.5 µM [activator, single point]"
same,Potency,[2],inconclusive: 19 µM [activator]
same,Potency,[12],"inconclusive: 17.8 µM [rising, partial curve, poor fit]"
same,Potency,[3],inactive
same,Potency,[18],"inconclusive: 9.18 µM [inhibitor, partial curve, poor fit]"
same,Potency,[13],"inconclusive: 18.8 µM [inhibitor, partial curve]"
same,Potency,[8]; [20],"inconclusive: 0.266 µM [inhibitor, single point]"

# Three entries from above, as tab-separated lines.
smiles	measurement	setting	value
CC(C)(C)OCC1CO1 (stereo not drawn)	Potency	[19]	inactive
same	Potency	[8]; [20]	inactive
CCCCc1cc2ccccc2c(OCCN(C)C)n1	Potency	[1]	inconclusive: 33.5 µM [activator, single point]
